Experimental data reported in patent US20190300875A1.
Results are given in words; binding and its absence hold for the method and conditions named. In cells and extracts the contact can be indirect. Some binding calls cover weakened binding; strength is not graded here. For some assays here: Tags and fused reporters may be left off the sequences shown.

T1: Flag-hCRY2 (human) (UniProt Q49AN0)
T1 sequence (looked up): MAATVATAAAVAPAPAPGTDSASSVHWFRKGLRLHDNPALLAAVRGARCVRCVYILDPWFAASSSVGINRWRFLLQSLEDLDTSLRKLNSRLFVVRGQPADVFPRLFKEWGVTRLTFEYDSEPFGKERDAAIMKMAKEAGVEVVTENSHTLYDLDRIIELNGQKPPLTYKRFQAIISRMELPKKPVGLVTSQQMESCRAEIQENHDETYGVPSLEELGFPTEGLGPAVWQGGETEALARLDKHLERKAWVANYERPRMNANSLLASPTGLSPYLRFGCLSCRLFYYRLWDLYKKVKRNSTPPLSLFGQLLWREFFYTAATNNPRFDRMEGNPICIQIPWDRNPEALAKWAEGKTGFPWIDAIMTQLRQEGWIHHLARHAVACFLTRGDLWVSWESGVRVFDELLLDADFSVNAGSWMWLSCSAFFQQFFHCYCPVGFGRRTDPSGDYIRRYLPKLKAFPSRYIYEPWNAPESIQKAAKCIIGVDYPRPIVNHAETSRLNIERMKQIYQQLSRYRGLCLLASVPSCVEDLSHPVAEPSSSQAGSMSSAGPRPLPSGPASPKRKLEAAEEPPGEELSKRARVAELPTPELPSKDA

B1: GFP-BIC1 (protein, not shown: large carriers)
chain: MMNIDDTTSPMAHPIGPSQPPSDQTKQDPPSLPQEAASSVSADKKDLALLEEKPKQSQEEDRVDTGRERLKKHRREIAGRVWIPEIWGQEELLKDWIDCSTFDTCLVPAGISSARTALVEEARRAASASGGLHNRCLILR
B2: human cryptochrome 2 (hCRY2) (protein, UniProt Q49AN0 1-593, looked up)
chain: T1 sequence (looked up)

Legend:
Flag-hCRY2 (human) [1] = biological target: T1, Flag-hCRY2 (human); experiment: co-IP with anti-Flag beads, HEK293T cells (FIG. 11)
Flag-hCRY2 (human) [2] = biological target: T1, Flag-hCRY2 (human); experiment: co-IP with anti-Flag beads, HEK293T cells co-expressing Flag-hCRY, Myc-hCRY and GFP-BIC1 or GFP
Flag-hCRY2 (human) [3] = biological target: T1, Flag-hCRY2 (human); experiment: co-IP with anti-Flag beads, HEK293T cells co-expressing Flag-hCRY, Myc-hCRY and GFP-BIC1 or GFP (FIG. 11)
[4] = biological target: human cryptochrome 2 (hCRY2) (human) (UniProt Q49AN0); experiment: co-IP, HEK293T cells, control experiment
[5] = biological target: human cryptochrome 2 (hCRY2) (human) (UniProt Q49AN0); experiment: co-IP (Flag-CRY with Myc-CRY) and qCo-IP (FLUC-CRY with REN-CRY) in HEK293T cells, blue light against dark (FIG. 10)

Binder	binding (Flag-hCRY2 (human) [1])	binding (Flag-hCRY2 (human) [2])	binding (Flag-hCRY2 (human) [3])	binding [4]	binding [5]
B1	binds	binds	binds		
B2				binds	binds
